{
  "sequences": {"note": "By UniProt entry, the sequences of proteins in these tests, tags left out.", "UniProt Q9NZQ7": "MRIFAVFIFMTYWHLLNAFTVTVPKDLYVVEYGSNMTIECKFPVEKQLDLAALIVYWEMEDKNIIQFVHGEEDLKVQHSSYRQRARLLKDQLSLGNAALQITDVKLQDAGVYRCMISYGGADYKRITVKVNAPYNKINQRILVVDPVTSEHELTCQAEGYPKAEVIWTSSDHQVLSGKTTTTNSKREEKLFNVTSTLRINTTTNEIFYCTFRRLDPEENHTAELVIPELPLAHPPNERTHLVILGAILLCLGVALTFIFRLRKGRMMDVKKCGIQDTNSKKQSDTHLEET"},
  "source": "patent US20230227557A1",
  "about": "(PROMAB BIOTECHNOLOGIES, published 2023)",
  "target": "PD-L1 extracellular domain fused to human Fc (PD-L1-hFc) (UniProt Q9NZQ7)",
  "test": "Western blot on the lysate of transfected HEK 293 cells",
  "note": "No constants are given. Whether binding was seen depends on the method and setting. Some binding calls cover weakened binding; strength is not graded here.",
  "data": [
    {"binder": "mouse monoclonal anti-human PD-L1 antibody (hybridoma clone 7D2A10) (antibody, V domains shown, also called Promab anti-PD-L1; PD-L1 monoclonal antibody) VH: QIQLVQSGPELKNPGETVKISCKASGYTFTNYGMNWVKQAPGKGLKWMGWINTHTGEPTYADDFKGRFAFSSETSASSAYLQINNLKNDDMATYFCAKGTHREEIPAWFAYWGQGTLVTVSA VL: DVLMTQTPLSLPVSLGDQASISCRSSQSIVHSNGNTYLEWYLQKPGQSPELLIYKVSNLFSGVPDRFSGSGSGTDFTLKISRVEAEDLGVYYCFQGSHVPPTFGAGTKLELKR", "values": [
      {"measurement": "binding", "value": "binds"}
    ]}
  ]
}
